Assay results reported in US20210246203A1.
No constants are given. Whether binding was seen depends on the method and setting. Some results given as binding are weak or reduced against the parent protein; the word gives no strength.

Columns and labels:
[1] = target: T1, Astrotactin (ASTN1) recombinant protein (UniProt O14525); assay: ELISA on plate-coated ASTN1, OD 450 nm
T1 sequence (looked up): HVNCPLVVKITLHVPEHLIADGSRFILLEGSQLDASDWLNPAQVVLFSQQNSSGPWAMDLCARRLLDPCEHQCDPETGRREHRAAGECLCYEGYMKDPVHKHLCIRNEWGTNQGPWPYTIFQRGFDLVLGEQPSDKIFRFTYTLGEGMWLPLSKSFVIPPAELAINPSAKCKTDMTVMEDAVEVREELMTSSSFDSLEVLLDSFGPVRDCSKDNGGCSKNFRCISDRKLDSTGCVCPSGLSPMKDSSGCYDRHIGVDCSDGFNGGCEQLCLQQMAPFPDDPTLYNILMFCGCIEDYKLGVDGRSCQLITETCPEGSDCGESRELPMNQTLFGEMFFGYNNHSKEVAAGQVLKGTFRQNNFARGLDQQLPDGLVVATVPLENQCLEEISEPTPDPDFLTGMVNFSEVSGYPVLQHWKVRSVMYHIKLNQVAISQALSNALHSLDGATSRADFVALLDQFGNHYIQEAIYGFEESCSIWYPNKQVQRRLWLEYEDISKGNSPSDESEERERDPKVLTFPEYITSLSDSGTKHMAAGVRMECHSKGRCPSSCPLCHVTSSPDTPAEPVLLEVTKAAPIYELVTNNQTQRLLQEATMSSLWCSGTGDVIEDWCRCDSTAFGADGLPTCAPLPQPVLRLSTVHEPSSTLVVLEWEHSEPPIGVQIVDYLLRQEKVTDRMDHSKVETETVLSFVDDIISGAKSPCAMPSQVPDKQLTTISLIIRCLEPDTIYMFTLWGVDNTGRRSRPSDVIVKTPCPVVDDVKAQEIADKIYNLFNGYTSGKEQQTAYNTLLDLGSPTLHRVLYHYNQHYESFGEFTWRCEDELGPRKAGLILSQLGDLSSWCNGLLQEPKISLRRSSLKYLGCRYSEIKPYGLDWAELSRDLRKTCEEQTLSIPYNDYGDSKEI

[2] = target: T1, Astrotactin (ASTN1) recombinant protein; assay: binding assay with recombinant ASTN1 (FIG. 2)

B1: scFv3 antibody (scFv, V domains shown)
VH: EVQLVESGGGLVQPGGSLRLSCSVTGEPITSGFWDWVRQATGKGLEFVGMIWGADGNTDPDSVKGRFTISRENTKNSLYLQMNSLRAGDTAVYYCARDFYDYDVFYYAMDYWGQGTTVTVSS
VL: DIQLTQSPSTLSASVGDRVTITCRASQSVGNNKLAWYQQKPGKAPKLLIYKASNLASGVPSRFSGSGSGTEFTLTISSLQPDDFATYYCQQHDYPYTFGQGTKVEIK
binding [1]: binds | binding [2]: binds
